These are yes or no findings as the source states them, for the method shown. Binding seen in cells or lysates may run through a third protein. Some entries that bind do so weakly or less than the wild type.
Legend:
integrin αV (human) [1] = molecular target: integrin αV (human) (UniProt P06756); test: co-immunoprecipitation, as retold in the discussion
EGFR (human) [2] = molecular target: EGFR (human) (UniProt P00533); test: as above
integrin αV (human) [3] = molecular target: integrin αV (human) (UniProt P06756); test: co-immunoprecipitation with anti-S100A10 or IgG from S100A10-OE PLC cells (FIG. 6F)
integrin αV (human) [4] = molecular target: integrin αV (human) (UniProt P06756); test: co-immunoprecipitation with anti-S100A10 from S100A10-OE PLC cell lysate
EGFR (human) [5] = molecular target: EGFR (human) (UniProt P00533); test: co-immunoprecipitation with anti-S100A10 or anti-EGFR from S100A10-OE PLC cell lysate
EGFR (human) [6] = molecular target: EGFR (human) (UniProt P00533); test: co-immunoprecipitation with anti-S100A10, anti-EGFR or IgG from S100A10-OE PLC cells (FIG. 8I)

Amino acid sequences for entries named in this document (tags omitted). A change or cut given only in a name is not applied to a line headed by its entry. Residues count along the entry.
UniProt P06756, residues 31-1048: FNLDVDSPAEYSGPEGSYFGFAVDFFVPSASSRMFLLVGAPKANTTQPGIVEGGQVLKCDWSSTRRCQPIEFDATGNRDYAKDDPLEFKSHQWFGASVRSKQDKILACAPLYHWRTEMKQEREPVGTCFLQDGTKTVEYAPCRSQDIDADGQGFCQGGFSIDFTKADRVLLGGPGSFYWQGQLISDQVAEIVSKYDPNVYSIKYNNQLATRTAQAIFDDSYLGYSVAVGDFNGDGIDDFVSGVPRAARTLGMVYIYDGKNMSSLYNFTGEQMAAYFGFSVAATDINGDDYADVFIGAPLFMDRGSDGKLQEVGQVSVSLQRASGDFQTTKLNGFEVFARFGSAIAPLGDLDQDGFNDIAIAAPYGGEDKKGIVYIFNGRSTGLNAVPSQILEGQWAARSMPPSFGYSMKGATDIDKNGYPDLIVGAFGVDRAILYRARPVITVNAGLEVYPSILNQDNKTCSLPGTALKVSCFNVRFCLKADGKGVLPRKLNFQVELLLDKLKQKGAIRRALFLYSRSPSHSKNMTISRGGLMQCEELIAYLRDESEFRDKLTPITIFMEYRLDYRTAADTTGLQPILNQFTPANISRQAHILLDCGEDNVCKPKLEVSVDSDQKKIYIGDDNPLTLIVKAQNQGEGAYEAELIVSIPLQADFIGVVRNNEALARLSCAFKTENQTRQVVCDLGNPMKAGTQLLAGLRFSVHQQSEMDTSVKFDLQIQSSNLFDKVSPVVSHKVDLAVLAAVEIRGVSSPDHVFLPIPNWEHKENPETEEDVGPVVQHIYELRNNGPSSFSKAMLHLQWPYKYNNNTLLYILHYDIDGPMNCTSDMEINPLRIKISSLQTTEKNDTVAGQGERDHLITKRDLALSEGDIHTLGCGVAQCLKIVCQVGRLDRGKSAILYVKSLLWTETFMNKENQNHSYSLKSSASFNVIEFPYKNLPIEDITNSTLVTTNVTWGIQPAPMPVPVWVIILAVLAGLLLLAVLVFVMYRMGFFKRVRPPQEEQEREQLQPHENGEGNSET
UniProt P60903: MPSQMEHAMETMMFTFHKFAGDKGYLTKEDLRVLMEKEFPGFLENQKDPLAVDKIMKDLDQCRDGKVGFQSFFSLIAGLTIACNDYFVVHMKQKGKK

binding (integrin αV (human) [1]): binds | binding (EGFR (human) [2]): binds | binding (integrin αV (human) [3]): binds | binding (integrin αV (human) [4]): binds | binding (EGFR (human) [5]): binds | binding (EGFR (human) [6]): binds
Substance: S100A10 (from UniProt P60903 2-97)

Reference: patent publication US20240094211A1, “COMPOSITIONS AND METHODS TARGETING S100A10 FOR THE TREATMENT AND DIAGNOSIS OF LIVER CANCER” (The University of Hong Kong, priority 2022, published 2024)
